Measured values as given in paper doi:10.1101/402123 (bioRxiv, 2018).
These are yes or no findings as the source states them, for the method shown. Some binding calls cover weakened binding; strength is not graded here.

T1: fluorescein-labeled BP230 peptide 26-55 (human, UniProt Q03001-8 26-55, N-terminal fluorescein)
T1 peptide (looked up): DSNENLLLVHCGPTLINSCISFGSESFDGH


Target: T1, fluorescein-labeled BP230 peptide 26-55
Assay: fluorescence polarisation

binding | Binder
binds weakly | β4-CS-FnIII-3,4 (1436-1666) Q1479R (domain or fragment, UniProt P16144-2 1436-1666) LPRDYSTLTSVSSHDSRLTAGVPDTPTRLVFSALGPTSLRVSWREPRCERPLQGYSVEYQLLNGGELHRLNIPNPAQTSVVVEDLLPNHSYVFRVRAQSQEGWGREREGVITIESQVHPQSPLCPLPGSAFTLSTPSAPGPLVFTALSPDSLQLSWERPRRPNGDIVGYLVTCEMAQGGGPATAFRVDGDSPESRLTVPGLSENVPYKFKVQARTTEGFGPEREGIITIES
binds weakly | β4-CS-FnIII-3,4 (1436-1666) E1536R (domain or fragment, UniProt P16144-2 1436-1666) LPRDYSTLTSVSSHDSRLTAGVPDTPTRLVFSALGPTSLRVSWQEPRCERPLQGYSVEYQLLNGGELHRLNIPNPAQTSVVVEDLLPNHSYVFRVRAQSQRGWGREREGVITIESQVHPQSPLCPLPGSAFTLSTPSAPGPLVFTALSPDSLQLSWERPRRPNGDIVGYLVTCEMAQGGGPATAFRVDGDSPESRLTVPGLSENVPYKFKVQARTTEGFGPEREGIITIES
binds weakly | β4-CS-FnIII-3,4 (1436-1666) A1468R (domain or fragment, UniProt P16144-2 1436-1666) LPRDYSTLTSVSSHDSRLTAGVPDTPTRLVFSRLGPTSLRVSWQEPRCERPLQGYSVEYQLLNGGELHRLNIPNPAQTSVVVEDLLPNHSYVFRVRAQSQEGWGREREGVITIESQVHPQSPLCPLPGSAFTLSTPSAPGPLVFTALSPDSLQLSWERPRRPNGDIVGYLVTCEMAQGGGPATAFRVDGDSPESRLTVPGLSENVPYKFKVQARTTEGFGPEREGIITIES
binds weakly | β4-CS-FnIII-3,4 (1436-1666) E1480R (domain or fragment, UniProt P16144-2 1436-1666) LPRDYSTLTSVSSHDSRLTAGVPDTPTRLVFSALGPTSLRVSWQRPRCERPLQGYSVEYQLLNGGELHRLNIPNPAQTSVVVEDLLPNHSYVFRVRAQSQEGWGREREGVITIESQVHPQSPLCPLPGSAFTLSTPSAPGPLVFTALSPDSLQLSWERPRRPNGDIVGYLVTCEMAQGGGPATAFRVDGDSPESRLTVPGLSENVPYKFKVQARTTEGFGPEREGIITIES
binds weakly | β4-CS-FnIII-3,4 (1436-1666) R1482E/E1484R/R1485E (domain or fragment, UniProt P16144-2 1436-1666) LPRDYSTLTSVSSHDSRLTAGVPDTPTRLVFSALGPTSLRVSWQEPECREPLQGYSVEYQLLNGGELHRLNIPNPAQTSVVVEDLLPNHSYVFRVRAQSQEGWGREREGVITIESQVHPQSPLCPLPGSAFTLSTPSAPGPLVFTALSPDSLQLSWERPRRPNGDIVGYLVTCEMAQGGGPATAFRVDGDSPESRLTVPGLSENVPYKFKVQARTTEGFGPEREGIITIES
binds weakly | β4-CS-FnIII-3,4 (1436-1666) Q1535R/E1536R (domain or fragment, UniProt P16144-2 1436-1666) LPRDYSTLTSVSSHDSRLTAGVPDTPTRLVFSALGPTSLRVSWQEPRCERPLQGYSVEYQLLNGGELHRLNIPNPAQTSVVVEDLLPNHSYVFRVRAQSRRGWGREREGVITIESQVHPQSPLCPLPGSAFTLSTPSAPGPLVFTALSPDSLQLSWERPRRPNGDIVGYLVTCEMAQGGGPATAFRVDGDSPESRLTVPGLSENVPYKFKVQARTTEGFGPEREGIITIES
binds weakly | β4-CS-FnIII-3,4 (1436-1666) E1536A (domain or fragment, UniProt P16144-2 1436-1666) LPRDYSTLTSVSSHDSRLTAGVPDTPTRLVFSALGPTSLRVSWQEPRCERPLQGYSVEYQLLNGGELHRLNIPNPAQTSVVVEDLLPNHSYVFRVRAQSQAGWGREREGVITIESQVHPQSPLCPLPGSAFTLSTPSAPGPLVFTALSPDSLQLSWERPRRPNGDIVGYLVTCEMAQGGGPATAFRVDGDSPESRLTVPGLSENVPYKFKVQARTTEGFGPEREGIITIES
binds weakly | β4-CS-FnIII-3,4 (1436-1666) R1475E (domain or fragment, UniProt P16144-2 1436-1666) LPRDYSTLTSVSSHDSRLTAGVPDTPTRLVFSALGPTSLEVSWQEPRCERPLQGYSVEYQLLNGGELHRLNIPNPAQTSVVVEDLLPNHSYVFRVRAQSQEGWGREREGVITIESQVHPQSPLCPLPGSAFTLSTPSAPGPLVFTALSPDSLQLSWERPRRPNGDIVGYLVTCEMAQGGGPATAFRVDGDSPESRLTVPGLSENVPYKFKVQARTTEGFGPEREGIITIES
binds weakly | β4-CS-FnIII-3,4 (1436-1666) Q1535R (domain or fragment, UniProt P16144-2 1436-1666) LPRDYSTLTSVSSHDSRLTAGVPDTPTRLVFSALGPTSLRVSWQEPRCERPLQGYSVEYQLLNGGELHRLNIPNPAQTSVVVEDLLPNHSYVFRVRAQSREGWGREREGVITIESQVHPQSPLCPLPGSAFTLSTPSAPGPLVFTALSPDSLQLSWERPRRPNGDIVGYLVTCEMAQGGGPATAFRVDGDSPESRLTVPGLSENVPYKFKVQARTTEGFGPEREGIITIES
binds weakly | β4-CS-FnIII-3,4 (1436-1666) Q1512R (domain or fragment, UniProt P16144-2 1436-1666) LPRDYSTLTSVSSHDSRLTAGVPDTPTRLVFSALGPTSLRVSWQEPRCERPLQGYSVEYQLLNGGELHRLNIPNPARTSVVVEDLLPNHSYVFRVRAQSQEGWGREREGVITIESQVHPQSPLCPLPGSAFTLSTPSAPGPLVFTALSPDSLQLSWERPRRPNGDIVGYLVTCEMAQGGGPATAFRVDGDSPESRLTVPGLSENVPYKFKVQARTTEGFGPEREGIITIES
binds weakly | β4-CS-FnIII-3,4 (1436-1666) E1541R/E1543R (domain or fragment, UniProt P16144-2 1436-1666) LPRDYSTLTSVSSHDSRLTAGVPDTPTRLVFSALGPTSLRVSWQEPRCERPLQGYSVEYQLLNGGELHRLNIPNPAQTSVVVEDLLPNHSYVFRVRAQSQEGWGRRRRGVITIESQVHPQSPLCPLPGSAFTLSTPSAPGPLVFTALSPDSLQLSWERPRRPNGDIVGYLVTCEMAQGGGPATAFRVDGDSPESRLTVPGLSENVPYKFKVQARTTEGFGPEREGIITIES
binds weakly | β4-CS-FnIII-3,4 (1436-1666) Q1535A (domain or fragment, UniProt P16144-2 1436-1666) LPRDYSTLTSVSSHDSRLTAGVPDTPTRLVFSALGPTSLRVSWQEPRCERPLQGYSVEYQLLNGGELHRLNIPNPAQTSVVVEDLLPNHSYVFRVRAQSAEGWGREREGVITIESQVHPQSPLCPLPGSAFTLSTPSAPGPLVFTALSPDSLQLSWERPRRPNGDIVGYLVTCEMAQGGGPATAFRVDGDSPESRLTVPGLSENVPYKFKVQARTTEGFGPEREGIITIES
binds weakly | β4-CS-FnIII-3,4 (1436-1666) R1540E/R1542E (domain or fragment, UniProt P16144-2 1436-1666) LPRDYSTLTSVSSHDSRLTAGVPDTPTRLVFSALGPTSLRVSWQEPRCERPLQGYSVEYQLLNGGELHRLNIPNPAQTSVVVEDLLPNHSYVFRVRAQSQEGWGEEEEGVITIESQVHPQSPLCPLPGSAFTLSTPSAPGPLVFTALSPDSLQLSWERPRRPNGDIVGYLVTCEMAQGGGPATAFRVDGDSPESRLTVPGLSENVPYKFKVQARTTEGFGPEREGIITIES
binds weakly | β4-CS-FnIII-3,4 (1436-1666) E1493R (domain or fragment, UniProt P16144-2 1436-1666) LPRDYSTLTSVSSHDSRLTAGVPDTPTRLVFSALGPTSLRVSWQEPRCERPLQGYSVRYQLLNGGELHRLNIPNPAQTSVVVEDLLPNHSYVFRVRAQSQEGWGREREGVITIESQVHPQSPLCPLPGSAFTLSTPSAPGPLVFTALSPDSLQLSWERPRRPNGDIVGYLVTCEMAQGGGPATAFRVDGDSPESRLTVPGLSENVPYKFKVQARTTEGFGPEREGIITIES
binds weakly | β4-CS-FnIII-3,4 (1436-1666) N1498R (domain or fragment, UniProt P16144-2 1436-1666) LPRDYSTLTSVSSHDSRLTAGVPDTPTRLVFSALGPTSLRVSWQEPRCERPLQGYSVEYQLLRGGELHRLNIPNPAQTSVVVEDLLPNHSYVFRVRAQSQEGWGREREGVITIESQVHPQSPLCPLPGSAFTLSTPSAPGPLVFTALSPDSLQLSWERPRRPNGDIVGYLVTCEMAQGGGPATAFRVDGDSPESRLTVPGLSENVPYKFKVQARTTEGFGPEREGIITIES
binds weakly | β4-CS-FnIII-3,4 (1436-1666) E1501R (domain or fragment, UniProt P16144-2 1436-1666) LPRDYSTLTSVSSHDSRLTAGVPDTPTRLVFSALGPTSLRVSWQEPRCERPLQGYSVEYQLLNGGRLHRLNIPNPAQTSVVVEDLLPNHSYVFRVRAQSQEGWGREREGVITIESQVHPQSPLCPLPGSAFTLSTPSAPGPLVFTALSPDSLQLSWERPRRPNGDIVGYLVTCEMAQGGGPATAFRVDGDSPESRLTVPGLSENVPYKFKVQARTTEGFGPEREGIITIES
binds weakly | β4-CS-FnIII-3,4 (1436-1666) R1475A (domain or fragment, UniProt P16144-2 1436-1666) LPRDYSTLTSVSSHDSRLTAGVPDTPTRLVFSALGPTSLAVSWQEPRCERPLQGYSVEYQLLNGGELHRLNIPNPAQTSVVVEDLLPNHSYVFRVRAQSQEGWGREREGVITIESQVHPQSPLCPLPGSAFTLSTPSAPGPLVFTALSPDSLQLSWERPRRPNGDIVGYLVTCEMAQGGGPATAFRVDGDSPESRLTVPGLSENVPYKFKVQARTTEGFGPEREGIITIES
binds weakly | β4-CS-FnIII-3,4 (1436-1666) R1504E (domain or fragment, UniProt P16144-2 1436-1666) LPRDYSTLTSVSSHDSRLTAGVPDTPTRLVFSALGPTSLRVSWQEPRCERPLQGYSVEYQLLNGGELHELNIPNPAQTSVVVEDLLPNHSYVFRVRAQSQEGWGREREGVITIESQVHPQSPLCPLPGSAFTLSTPSAPGPLVFTALSPDSLQLSWERPRRPNGDIVGYLVTCEMAQGGGPATAFRVDGDSPESRLTVPGLSENVPYKFKVQARTTEGFGPEREGIITIES
binds weakly | β4-CS-FnIII-3,4 (1436-1666) T1547R (domain or fragment, UniProt P16144-2 1436-1666) LPRDYSTLTSVSSHDSRLTAGVPDTPTRLVFSALGPTSLRVSWQEPRCERPLQGYSVEYQLLNGGELHRLNIPNPAQTSVVVEDLLPNHSYVFRVRAQSQEGWGREREGVIRIESQVHPQSPLCPLPGSAFTLSTPSAPGPLVFTALSPDSLQLSWERPRRPNGDIVGYLVTCEMAQGGGPATAFRVDGDSPESRLTVPGLSENVPYKFKVQARTTEGFGPEREGIITIES
binds weakly | β4-CS-FnIII-3,4 (1436-1666) A1468D (domain or fragment, UniProt P16144-2 1436-1666) LPRDYSTLTSVSSHDSRLTAGVPDTPTRLVFSDLGPTSLRVSWQEPRCERPLQGYSVEYQLLNGGELHRLNIPNPAQTSVVVEDLLPNHSYVFRVRAQSQEGWGREREGVITIESQVHPQSPLCPLPGSAFTLSTPSAPGPLVFTALSPDSLQLSWERPRRPNGDIVGYLVTCEMAQGGGPATAFRVDGDSPESRLTVPGLSENVPYKFKVQARTTEGFGPEREGIITIES
binds weakly | β4-FnIII-3,4 (1457-1666) (domain or fragment, UniProt P16144-2 1457-1666) VPDTPTRLVFSALGPTSLRVSWQEPRCERPLQGYSVEYQLLNGGELHRLNIPNPAQTSVVVEDLLPNHSYVFRVRAQSQEGWGREREGVITIESQVHPQSPLCPLPGSAFTLSTPSAPGPLVFTALSPDSLQLSWERPRRPNGDIVGYLVTCEMAQGGGPATAFRVDGDSPESRLTVPGLSENVPYKFKVQARTTEGFGPEREGIITIES
